Like-named read-outs stand apart in the source and are kept apart here. At least one compound was matched to its structure with a doubt left.
Target: T1, Glucoamylase (Aspergillus awamori, UniProt P69327)
T1 construct: made in house; host or cells: yeast
Assay: glucoamylase inhibition, maltose substrate
Type: biochemical
Experimental: The enzymes α-glucosidase (yeast), β-glucosidase (almonds), isomaltase (bakers yeast) and α-mannosidase (jackbean) were purchased from Sigma Chemical Company. Glucoamylase was isolated by the present inventors by expressing the gene from Aspergillus awamori in yeast, by methods well known in the art. Enzyme assays were performed by using p-nitrophenol -α (or β)-glucopyranosides as substrate at 37° C. in phosphate buffer (0.05M, pH 6.8) for α (β)-glucosidase and isomaltase, and p-nitrophenol-α-mannopyranoside as substrate at 25° C. in citrate (0.05M, pH 4.5) buffer for α-mannosidase. Glucoamylase was assayed using maltose as substrate at 50° C. in sodium acetate buffer (0.05M, pH 4.5).
Michaelis-Menten constant, Km, was calculated using software Grafit (Erithacus Software Ltd.). Ki was calculated by plotting K^appm vs. [Inhibitor]. FIG. 2(a) represents a plot of K^appm vs. [Inhibitor], wherein the inhibitor is the monosaccharide sugar analog isofagomin, obtained for five different glycosidases.

The chains behind the UniProt entries cited, without tags or fusion partners. Residues count along the entry.
UniProt P69327, 25-640: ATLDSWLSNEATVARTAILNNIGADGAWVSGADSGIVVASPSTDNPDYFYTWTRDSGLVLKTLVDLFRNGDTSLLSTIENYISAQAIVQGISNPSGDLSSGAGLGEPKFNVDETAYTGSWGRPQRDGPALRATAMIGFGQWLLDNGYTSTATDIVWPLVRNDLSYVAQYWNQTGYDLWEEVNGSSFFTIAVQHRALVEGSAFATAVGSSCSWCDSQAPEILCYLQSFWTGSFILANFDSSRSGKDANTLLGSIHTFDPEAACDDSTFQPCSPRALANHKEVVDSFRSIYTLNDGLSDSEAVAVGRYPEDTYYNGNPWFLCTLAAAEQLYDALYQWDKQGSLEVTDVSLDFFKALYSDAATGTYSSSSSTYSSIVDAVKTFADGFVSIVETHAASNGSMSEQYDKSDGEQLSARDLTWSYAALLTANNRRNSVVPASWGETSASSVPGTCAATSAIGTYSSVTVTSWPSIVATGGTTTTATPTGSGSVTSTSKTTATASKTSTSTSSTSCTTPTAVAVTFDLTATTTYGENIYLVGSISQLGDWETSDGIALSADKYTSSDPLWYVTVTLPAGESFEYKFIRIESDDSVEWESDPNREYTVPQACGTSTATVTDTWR

SMILES: CO[C@H]1O[C@H](CCN2C[C@H](CO)[C@@H](O)[C@H](O)C2)[C@@H](O)[C@H](O)[C@H]1O [TMJ, Methyl 6,7-dideoxy-7-[(3R,4R,5R)-3,4-dihydroxy-5-hydroxymethyl-piperidinyl]-α-D-gluco-heptopyranoside]
- inhibition of glucoamylase, in words: very strong inhibition
- mode of inhibition of glucoamylase (Lineweaver-Burk plot) (FIG. 1(b), three inhibitor concentrations): competitive inhibition
- inhibition of glucoamylase, in words (listed as disaccharide analog): particularly strong inhibitor

Source: US5844102A, “Glycohydrolase inhibitors, their preparation and use thereof” (University of Maryland Baltimore County, priority 1994, dated 1998)
